Source: PubChem BioAssay AID1159578 (Peter MacCallum Cancer Centre, 2015)

- Assay: 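siRNA pools altering how lymphatic endothelial cells close a scratch wound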 (primary screen)
- System: human lymphatic endothelial cells
- Reagents: siRNA pool against human genes, 40 nM
- Time to read-out: 48 h after transfection
- Measurement: 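Cells stained with dye and imaged after a scratch; covered wound area and nuclei counted, duplicates averaged, migration set against mock wells and turned into a robust z-score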
- Reading the numbers: migration robust z-score: higher = faster migration into the scratch; migration relative to mock: higher = more scratch area covered than mock; nuclei per well: higher = more cells in the well
- Hit rule: 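Migration changed when robust z exceeds 2 or falls below -2 and mean nuclei number is at least 3300; otherwise not called changed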
- Meaning of the calls: active = migration changed; inactive = no migration change, or too few cells
In all, the deposit lists about 18,000 reagents; shown is a random part of them. Over the whole deposit, about 1,030 (5.7%) are marked active. 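Inactive calls also include pools with fewer than 3300 nuclei, whose migration was not assessed.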 Raw values vary from plate to plate and are shown uncorrected. Unmarked entries are inactive.

The first 2 records, to show the layout:
target gene	migration robust z-score	migration class with cell-count check	migration relative to mock	nuclei per well, duplicate mean
RBM10	-0.58	migration z between -2 and 2; enough cells	0.74	4768
GAB2	1.22	under 3300 nuclei; migration not judged	1.04	2644

Results, repeating the preview:
target gene	migration robust z-score	migration class with cell-count check	migration relative to mock	nuclei per well, duplicate mean
RBM10	-0.58	migration z between -2 and 2; enough cells	0.74	4768
GAB2	1.22	under 3300 nuclei; migration not judged	1.04	2644
CNTRL	1.22	migration z between -2 and 2; enough cells	1.04	7148
HOMER3	-0.76	migration z between -2 and 2; enough cells	0.69	5574
MTRFR	-2.37 (active)	migration z below -2; enough cells	0.26	6424
ADAMTSL2	-0.8	migration z between -2 and 2; enough cells	0.68	5062
FADS2	-0.36	migration z between -2 and 2; enough cells	0.74	4144
UBE2N	-0.52	migration z between -2 and 2; enough cells	0.7	5117
PRX	-1.33	migration z between -2 and 2; enough cells	0.53	4388
AFG3L2	-0.1	migration z between -2 and 2; enough cells	0.78	4764
HAL	-0.2	migration z between -2 and 2; enough cells	0.76	5424
NPM1	0.18	migration z between -2 and 2; enough cells	0.84	5588
IFNA7	-1.02	migration z between -2 and 2; enough cells	0.62	5272
HEATR6	0.58	migration z between -2 and 2; enough cells	1.04	5476
PGBD5	-2.39 (active)	migration z below -2; enough cells	0.27	4100
MAGEA6	-0.34	migration z between -2 and 2; enough cells	0.8	6792
TMPRSS7	0.36	migration z between -2 and 2; enough cells	0.88	5366
AKT2	-2.21 (active)	migration z below -2; enough cells	0.38	3670
TSPAN17	0.65	migration z between -2 and 2; enough cells	0.93	6290
LEFTY2	0.02	migration z between -2 and 2; enough cells	0.81	6148
GPHB5	2.62 (active)	migration z above 2; enough cells	1.56	6700
HSPH1	-0.53	migration z between -2 and 2; enough cells	0.74	6286
KRT16	1.08	migration z between -2 and 2; enough cells	1.16	6337
RRH	1.46	migration z between -2 and 2; enough cells	1.08	8516
SLC25A4	-1.04	migration z between -2 and 2; enough cells	0.6	5235
ECH1	0.13	migration z between -2 and 2; enough cells	0.83	5922
TMEM25	-0.58	migration z between -2 and 2; enough cells	0.74	6288
CDX2	0.72	migration z between -2 and 2; enough cells	0.94	6504
L2HGDH	-0.03	migration z between -2 and 2; enough cells	0.8	5382
ZNF276	-1.87	migration z between -2 and 2; enough cells	0.4	6066
INTS5	-0.23	migration z between -2 and 2; enough cells	0.82	5668
DR1	-0.28	migration z between -2 and 2; enough cells	0.75	7461
TERF2IP	-0.34	migration z between -2 and 2; enough cells	0.74	4804
GPR35	-2.05 (active)	migration z below -2; enough cells	0.41	5969
PLK3	0.31	migration z between -2 and 2; enough cells	0.86	4824
OPRL1	1.48	migration z between -2 and 2; enough cells	1.09	6654
MED12L	-0.11	migration z between -2 and 2; enough cells	0.86	5746
OR2Y1	-1.96	migration z between -2 and 2; enough cells	0.38	4110
NSUN2	1.02	migration z between -2 and 2; enough cells	1.15	6064
